Reference: paper PMC5547156
These are yes or no findings as the source states them, for the method shown. Binding seen in cells or lysates may run through a third protein. Some results given as binding are weak or reduced against the parent protein; the word gives no strength.

Amino acid sequences for entries named in this document (tags omitted).
UniProt P01101: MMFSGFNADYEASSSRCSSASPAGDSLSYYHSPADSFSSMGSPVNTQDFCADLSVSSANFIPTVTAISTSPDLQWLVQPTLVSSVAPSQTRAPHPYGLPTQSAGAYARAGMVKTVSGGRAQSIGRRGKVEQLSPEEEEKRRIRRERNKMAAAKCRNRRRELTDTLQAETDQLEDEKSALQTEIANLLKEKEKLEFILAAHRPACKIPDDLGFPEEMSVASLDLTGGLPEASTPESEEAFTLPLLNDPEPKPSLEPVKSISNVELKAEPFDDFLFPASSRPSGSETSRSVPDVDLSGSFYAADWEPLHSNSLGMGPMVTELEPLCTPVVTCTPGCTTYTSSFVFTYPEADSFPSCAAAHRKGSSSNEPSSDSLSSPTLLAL
UniProt P05627: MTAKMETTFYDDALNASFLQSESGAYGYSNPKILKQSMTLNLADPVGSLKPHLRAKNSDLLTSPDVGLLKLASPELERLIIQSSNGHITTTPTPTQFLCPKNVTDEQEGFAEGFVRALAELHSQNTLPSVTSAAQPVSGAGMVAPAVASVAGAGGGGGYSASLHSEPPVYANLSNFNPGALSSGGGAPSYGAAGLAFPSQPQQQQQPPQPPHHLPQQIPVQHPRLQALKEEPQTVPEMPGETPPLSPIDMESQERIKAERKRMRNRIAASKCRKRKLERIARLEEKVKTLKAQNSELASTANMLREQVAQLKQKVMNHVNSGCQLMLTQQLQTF

Biological target: c-Fos (mouse (endogenous in murine myoblasts)) (UniProt P01101)
Assay: co-IP; immunoprecipitation with anti-c-Fos antibodies for 24 h, immunoblot for c-Jun; cells exposed to HIMF

binding: binds
Substance: c-Jun (from UniProt P05627 1-334)
